From article PMC4226561
No constants are given. Whether binding was seen depends on the method and setting. In cells and extracts the contact can be indirect. Some entries that bind do so weakly or less than the wild type. Sequences can lack the tags named with a protein.

T1: CESA1, full length, split-YFP (BiFC) fusion (Arabidopsis thaliana) (UniProt O48946)
T1 sequence: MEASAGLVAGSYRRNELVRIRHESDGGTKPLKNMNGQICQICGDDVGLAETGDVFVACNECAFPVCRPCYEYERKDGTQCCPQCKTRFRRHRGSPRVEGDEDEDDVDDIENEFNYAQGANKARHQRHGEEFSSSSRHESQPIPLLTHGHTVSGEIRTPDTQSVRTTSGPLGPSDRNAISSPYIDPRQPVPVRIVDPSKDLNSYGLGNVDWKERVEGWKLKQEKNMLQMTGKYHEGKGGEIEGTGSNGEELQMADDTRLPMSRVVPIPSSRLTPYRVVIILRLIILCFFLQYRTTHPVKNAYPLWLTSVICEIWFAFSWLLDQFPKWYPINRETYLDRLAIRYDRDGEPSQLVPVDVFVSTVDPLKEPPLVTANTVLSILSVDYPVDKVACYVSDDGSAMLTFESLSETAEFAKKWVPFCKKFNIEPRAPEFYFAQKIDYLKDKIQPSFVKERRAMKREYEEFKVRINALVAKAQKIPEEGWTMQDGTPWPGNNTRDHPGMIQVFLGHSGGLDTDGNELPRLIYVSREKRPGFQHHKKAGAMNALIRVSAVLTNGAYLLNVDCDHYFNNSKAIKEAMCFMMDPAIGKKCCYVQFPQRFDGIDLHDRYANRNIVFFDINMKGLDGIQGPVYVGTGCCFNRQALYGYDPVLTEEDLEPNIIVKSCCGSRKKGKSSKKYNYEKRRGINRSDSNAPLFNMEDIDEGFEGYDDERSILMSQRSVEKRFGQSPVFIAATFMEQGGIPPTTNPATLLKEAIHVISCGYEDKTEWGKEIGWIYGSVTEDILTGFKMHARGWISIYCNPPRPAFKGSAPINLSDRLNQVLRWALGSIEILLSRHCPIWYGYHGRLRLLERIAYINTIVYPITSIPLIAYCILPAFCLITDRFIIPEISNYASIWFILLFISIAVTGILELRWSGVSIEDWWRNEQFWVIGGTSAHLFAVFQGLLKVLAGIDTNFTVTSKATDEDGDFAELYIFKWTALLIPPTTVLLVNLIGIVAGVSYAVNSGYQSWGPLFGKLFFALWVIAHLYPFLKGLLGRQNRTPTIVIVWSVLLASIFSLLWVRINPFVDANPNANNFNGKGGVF

T2: CESA7, full length, split-YFP (BiFC) fusion (Arabidopsis thaliana) (UniProt Q9SWW6)
T2 sequence: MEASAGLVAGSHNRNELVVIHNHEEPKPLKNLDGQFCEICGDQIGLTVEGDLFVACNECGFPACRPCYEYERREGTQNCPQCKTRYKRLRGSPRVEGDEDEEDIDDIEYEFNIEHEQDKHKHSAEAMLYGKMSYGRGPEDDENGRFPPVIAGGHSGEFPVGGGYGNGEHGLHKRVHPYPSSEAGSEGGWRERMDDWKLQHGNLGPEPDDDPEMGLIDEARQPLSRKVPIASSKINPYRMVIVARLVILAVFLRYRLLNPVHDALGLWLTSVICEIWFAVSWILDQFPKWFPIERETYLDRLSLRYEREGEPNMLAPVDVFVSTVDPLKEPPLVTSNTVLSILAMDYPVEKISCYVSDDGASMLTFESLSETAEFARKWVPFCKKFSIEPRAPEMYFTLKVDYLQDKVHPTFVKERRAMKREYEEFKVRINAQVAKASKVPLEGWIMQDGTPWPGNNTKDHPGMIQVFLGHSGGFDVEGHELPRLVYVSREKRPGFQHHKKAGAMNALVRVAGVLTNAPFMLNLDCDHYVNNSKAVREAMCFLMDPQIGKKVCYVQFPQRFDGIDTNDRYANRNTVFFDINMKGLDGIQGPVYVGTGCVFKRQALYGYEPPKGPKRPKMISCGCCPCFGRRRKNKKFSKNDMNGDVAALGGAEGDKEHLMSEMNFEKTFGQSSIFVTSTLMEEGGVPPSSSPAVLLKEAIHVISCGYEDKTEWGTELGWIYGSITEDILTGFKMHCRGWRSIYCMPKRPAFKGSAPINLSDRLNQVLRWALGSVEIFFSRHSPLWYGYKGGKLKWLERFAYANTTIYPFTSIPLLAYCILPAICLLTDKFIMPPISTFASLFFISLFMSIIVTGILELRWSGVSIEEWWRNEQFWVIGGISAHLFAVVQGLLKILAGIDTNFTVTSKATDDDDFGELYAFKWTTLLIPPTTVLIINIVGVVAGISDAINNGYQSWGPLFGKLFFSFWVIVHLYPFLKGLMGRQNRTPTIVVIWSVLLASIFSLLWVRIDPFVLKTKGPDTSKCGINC

B1: KORRIGAN1 (KOR1), full length, split-YFP (BiFC) fusion (protein, UniProt Q38890 1-621)
chain: MYGRDPWGGPLEINTADSATDDDRSRNLNDLDRAALSRPLDETQQSWLLGPTEQKKKKYVDLGCIIVSRKIFVWTVGTLVAAALLAGFITLIVKTVPRHHPKTPPPDNYTIALHKALKFFNAQKSGKLPKHNNVSWRGNSGLQDGKGETGSFYKDLVGGYYDAGDAIKFNFPMAYAMTMLSWSVIEYSAKYEAAGELTHVKELIKWGTDYFLKTFNSTADSIDDLVSQVGSGNTDDGNTDPNDHYCWMRPEDMDYKRPVTTCNGGCSDLAAEMAAALASASIVFKDNKEYSKKLVHGAKVVYQFGRTRRGRYSAGTAESSKFYNSSMYWDEFIWGGAWMYYATGNVTYLNLITQPTMAKHAGAFWGGPYYGVFSWDNKLAGAQLLLSRLRLFLSPGYPYEEILRTFHNQTSIVMCSYLPIFNKFNRTNGGLIELNHGAPQPLQYSVNAAFLATLYSDYLDAADTPGWYCGPNFYSTSVLRDFARSQIDYILGKNPRKMSYVVGFGTKYPRHVHHRGASIPKNKVKYNCKGGWKWRDSKKPNPNTIEGAMVAGPDKRDGYRDVRMNYNYTEPTLAGNAGLVAALVALSGEEEATGKIDKNTIFSAVPPLFPTPPPPPAPWKP
B2: KOR1N (AA 1 to 94), split-YFP (BiFC) fusion (domain or fragment, UniProt Q38890 1-94)
chain: MYGRDPWGGPLEINTADSATDDDRSRNLNDLDRAALSRPLDETQQSWLLGPTEQKKKKYVDLGCIIVSRKIFVWTVGTLVAAALLAGFITLIVK
B3: KOR1C (AA 70 to 621), split-YFP (BiFC) fusion (domain or fragment, UniProt Q38890 70-621)
chain: KIFVWTVGTLVAAALLAGFITLIVKTVPRHHPKTPPPDNYTIALHKALKFFNAQKSGKLPKHNNVSWRGNSGLQDGKGETGSFYKDLVGGYYDAGDAIKFNFPMAYAMTMLSWSVIEYSAKYEAAGELTHVKELIKWGTDYFLKTFNSTADSIDDLVSQVGSGNTDDGNTDPNDHYCWMRPEDMDYKRPVTTCNGGCSDLAAEMAAALASASIVFKDNKEYSKKLVHGAKVVYQFGRTRRGRYSAGTAESSKFYNSSMYWDEFIWGGAWMYYATGNVTYLNLITQPTMAKHAGAFWGGPYYGVFSWDNKLAGAQLLLSRLRLFLSPGYPYEEILRTFHNQTSIVMCSYLPIFNKFNRTNGGLIELNHGAPQPLQYSVNAAFLATLYSDYLDAADTPGWYCGPNFYSTSVLRDFARSQIDYILGKNPRKMSYVVGFGTKYPRHVHHRGASIPKNKVKYNCKGGWKWRDSKKPNPNTIEGAMVAGPDKRDGYRDVRMNYNYTEPTLAGNAGLVAALVALSGEEEATGKIDKNTIFSAVPPLFPTPPPPPAPWKP
B4: KOR1TMD (AA 70 to 94), split-YFP (BiFC) fusion (domain or fragment, UniProt Q38890 70-94)
chain: KIFVWTVGTLVAAALLAGFITLIVK

Assays:
[1] = target: T1, CESA1, full length, split-YFP (BiFC) fusion (Arabidopsis thaliana); assay: split reporter; BiFC: Y/N and Y/C fragments of YFP each linked to the N-terminus of the proteins, transiently expressed in leaves of 3-week-old N. benthamiana; YFP fluorescence by confocal microscopy 3 days after infiltration
[2] = target: T2, CESA7, full length, split-YFP (BiFC) fusion (Arabidopsis thaliana); assay: as above

Row | Binder | binding [1] | binding [2]
1 | B1 | binds | no binding
2 | B2 | binds | no binding
3 | B3 | binds | no binding
4 | B4 | binds | no binding
